PubChem BioAssay AID493014 (National Center for Advancing Translational Sciences (NCATS), 2011)
This is one part of the list. Shown are side measurements of this screen, not its main read-out; they come without a call. Most of these compounds were active or inconclusive in the main read-out, so they are no random draw. Potencies come from curve fits of mixed quality, noted in brackets.

Assay: qHTS Assay to Find Inhibitors of Chronic Active B-Cell Receptor Signaling
Settings: ABC-DLBCL IkBa-CBG/CBR reporter, luminescence ratio (green luciferase fused to IkBa over red control in TMD8 lymphoma cells), 4 h
How it was run: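 Concentration-response series (up to 46 uM) were applied to TMD8 dual-reporter cells for 4 h at 37C with doxycycline. Green/red ratio, after filter-overlap correction, defined %Activity; red signal alone was normalised to basal cells and zero luminescence.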

[1] = measured here: CBR red luminescence, cell number
[2] = measured here: IkBa-CBG green luminescence

Row | Structure (SMILES) | AC50 [1] | AC50 [2]
1 | Cc1cc(NC(=O)c2ccccc2)nc(C)n1 | 1 µM [falling, full curve] | –
2 | Cc1ccc(C2=NN(Cc3nnc(-c4ccccc4)o3)C(=O)SC2)cc1 | 16.4 µM [falling, partial curve] | –
3 | CS(=O)(=O)Nc1nc2n(n1)C(c1ccc(F)cc1)CC(c1ccccc1)N2 (stereo unspecified) | 1.26 µM [rising, full curve] | –
4 | O=C1SC(SCc2ccccc2Cl)=N/C1=C\c1ccc(C(=O)O)cc1 | 22.4 µM [falling, partial curve] | –
5 | Oc1ccc(-c2nc3cnccn3c2Nc2ccc3c(c2)OCCO3)cc1 | – | 10 µM [falling, partial curve]
6 | Cc1cccc(N2C(=O)C(Cl)=C(Nc3c(C)n(C)n(-c4ccccc4)c3=O)C2=O)c1C | 32.6 µM [falling, single point] | –
7 | Cc1cc(C)c(OCC(=O)Nc2nnc(C3CC3)s2)c(C)c1 | 18.4 µM [falling, single point] | –
8 | Cc1cccc(-n2ncc3c(NCc4ccc5c(c4)OCO5)ncnc32)c1 | 5.8 µM [falling, partial curve] | –
9 | CCCn1c(N)c(C(c2ccc(C(=O)OC)cc2)N2CCN(c3ccccc3)CC2)c(=O)[nH]c1=O (stereo unspecified) | 25.1 µM [falling, single point] | –
10 | COc1ccccc1/C=C/C(=O)Nc1nc(N)n(-c2ccccc2)n1 | 2.82 µM [falling, full curve, poor fit] | –
11 | COc1ccc(CN(C)CC(=O)NC(=O)Nc2ccccc2F)cc1 | 6.51 µM [rising, partial curve] | –
12 | C=CCOC(=O)/C=C/C(=O)NC(N)=O | 35.5 µM [falling, single point] | –
13 | O=C(c1ccc(Cn2c(=S)[nH]c3ccc(Br)cc3c2=O)cc1)N1CCN(C2CCCCC2)CC1 | 0.282 µM [falling, full curve, poor fit] | –
14 | CCOC(=O)c1sc(S(C)(=O)=O)c2c1CC(C)(C)C/C2=N/O | 35.5 µM [rising, partial curve, poor fit] | –
15 | O=C(CN1CCN(Cc2ccc(Cl)cc2)CC1)N/N=C/c1c[nH]c2ccccc12 | 29.1 µM [falling, single point] | –
16 | CSCCC(NC(N)=O)C(=O)NCC1CCCCC1 (stereo unspecified) | 29.1 µM [rising, single point] | –
17 | CC1(CC(=O)Nc2ccccc2)NC(=S)N(c2ccccc2)N1 (stereo unspecified) | 20 µM [falling, single point] | –
18 | O=C(CSc1nnnn1C1CCCC1)Nc1ccccc1F | 15.8 µM [falling, partial curve, poor fit] | –
19 | Cc1cc(C(=O)OCC(=O)Nc2nc(-c3ccccc3)cs2)c(C)o1 | 5.62 µM [rising, single point] | –
20 | CCCc1cc(NCCCO)n2c(nc3ccccc32)c1C#N | 35.5 µM [falling, single point] | –
21 | O=C(Nc1cc2c3c(c1)CC(=O)N3CCC2)c1ccco1 | 6.51 µM [rising, full curve, poor fit] | –

Row | Structure (SMILES) | AC50 [1] | AC50 [2]
22 | Cc1ccc(C)c(OCCC(=O)NNC(=O)c2cc(C)oc2C)c1 | 29.1 µM [falling, partial curve, poor fit] | –
23 | CCSc1nc2sc3c(c2c(=O)n1-c1ccccc1)CCN(C(C)C)C3 | 31.6 µM [falling, single point] | 15.8 µM [rising, partial curve, poor fit]
24 | Fc1cccc2ncnc(OCc3ccccc3)c12 | 6.31 µM [falling, single point] | –
25 | Cc1ccc(S(=O)(=O)N/N=C2/CC(=O)CC(C)(C)C2)cc1[N+](=O)[O-] | 17.8 µM [falling, single point] | 35.5 µM [rising, partial curve, poor fit]
26 | CCOC(=O)Cc1csc(CC(N)=O)n1 | 0.178 µM [falling, full curve, poor fit] | –
27 | Cc1ccc(NS(=O)(=O)c2ccc(C(=O)N3CCCC(C(F)(F)F)C3)cc2)cc1 (stereo unspecified) | 0.13 µM [rising, full curve, poor fit] | –
28 | CC1(C)C(=O)Nc2ccccc2N1C(=O)COC(=O)c1ccc(Cl)c(S(=O)(=O)NCc2ccccc2)c1 | 0.0259 µM [falling, single point] | –
29 | C=CCNc1ncnc2c1cnn2-c1ccc(OC)cc1 | 11.2 µM [falling, single point] | –
30 | Cn1c(SCC(=O)c2ccccc2)nnc1-c1cccc(N)c1 | 18.4 µM [falling, partial curve] | –
31 | Cc1ccccc1C(=O)N1CCN(c2ccc(NC(=O)c3cccnc3)cc2)CC1 | 0.316 µM [falling, full curve, poor fit] | –
32 | Cc1ccccc1C(=O)NNC(=S)NC(=O)c1ccccc1 | 18.4 µM [falling, partial curve] | –
33 | COc1ccc(NC(=O)C/C(C)=N/NC(=O)C(=O)Nc2cccc(Cl)c2C)c(OC)c1 | 4.47 µM [falling, full curve, poor fit] | –
34 | COc1ccc2nc(C)cc(SCC(=O)N/N=C/c3ccc(O)c(O)c3)c2c1 | 2.82 µM [falling, partial curve, poor fit] | –
35 | CCOC(=O)c1ccc(Nc2nc(=O)c3cccnc3s2)cc1 | 2.82 µM [falling, full curve, poor fit] | –
36 | CN(C(=O)c1ccccn1)c1nnc(-c2ccccn2)s1 | 11.2 µM [falling, single point] | –
37 | CC(=O)Nc1ccc(C(=O)OCc2ccc(F)cc2)cc1 | 3.16 µM [rising, full curve, poor fit] | –
38 | O=S(=O)(O)c1nc2ccccc2n1Cc1ccccc1 | 5.01 µM [rising, single point] | –
39 | CCOC(=O)c1nnc(-c2cccs2)nc1Oc1ccccc1C(=O)OC | 14.6 µM [falling, partial curve] | –
40 | COCCNC(=O)c1cc2c3ccccc3n(C)c2s1 | 6.31 µM [falling, single point] | –
41 | CCn1ncc(CN2CCCC(C(=O)Nc3cccc(-c4cc5ccccc5[nH]4)c3)C2)c1C (stereo unspecified) | 12.6 µM [falling, partial curve, poor fit] | –
42 | COc1ccc(NC(=O)/C=C/c2ccco2)cn1 | 10 µM [falling, partial curve, poor fit] | –

Row | Structure (SMILES) | AC50 [1] | AC50 [2]
43 | CC(C)c1ccc(O)c(N)c1 | 23.1 µM [falling, partial curve, poor fit] | –
44 | Cc1cc(-n2c(C)cc(C(=O)CSc3nncn3C)c2C)no1 | 29.1 µM [rising, single point] | –
45 | CC[C@H](C)[C@@H](NC(=O)O[C@@H]1C(=O)c2cc(Br)ccc2O[C@H]1c1ccc2c(c1)OCO2)C(=O)OC | 23.1 µM [rising, partial curve, poor fit] | –
46 | COc1ccccc1/C=C/C=N/n1c(-c2ccc(F)cc2)n[nH]c1=S | 1.41 µM [falling, full curve] | –
47 | Nc1ccc(-c2nnn(Cc3ccccc3F)n2)cc1 | 2.82 µM [rising, partial curve, poor fit] | –
48 | Cc1ccc(C(C)C)c(OCC(=O)Nc2ccc3c(c2)nc(CCN2CCCCC2)n3C)c1 | 35.5 µM [falling, single point] | –
49 | CCOc1c(Br)cc(C2NS(=O)(=O)N=C3CCCCCN32)cc1OC (stereo unspecified) | 14.1 µM [rising, partial curve, poor fit] | 22.4 µM [falling, single point]
50 | CCn1c(=O)n(CC)c2cc(N3CCCC3)c(NC(=O)c3ccccc3Br)cc21 | 3.98 µM [rising, single point] | –
51 | Cn1c(CNc2ccc(Cl)cc2)nc2ccccc21 | 2.06 µM [rising, partial curve, poor fit] | –
52 | Cc1ccc(C(=O)Nc2ncc(Cc3ccccc3)s2)o1 | 11.2 µM [falling, single point] | –
53 | Nc1c(O)ccc2c1C(=O)c1ccccc1C2=O | – | 14.6 µM [rising, partial curve, poor fit]
54 | COc1ccc(OC)c(-c2c(=O)n(OCc3ccccc3Br)c3ccccc3[n+]2[O-])c1 | 3.26 µM [rising, single point] | –
55 | CCN(CC)CCN(Cc1cc2ccc(C)c(C)c2[nH]c1=O)C(=S)NCc1ccco1 | 15.8 µM [falling, single point] | –
56 | CCCc1[nH]n(-c2nc3ccccc3s2)c(=O)c1C=NCC1CCCO1 (stereo unspecified) | 8.91 µM [falling, partial curve, poor fit] | –
57 | Cc1c(Cl)c(C(=O)NNC(=S)Nc2ccccc2)nn1C | 1.64 µM [falling, full curve, poor fit] | –
58 | CCOc1ccc(N(CC(=O)Nc2cccc(OC)c2)S(=O)(=O)c2c(C)noc2C)cc1 | 10.3 µM [falling, partial curve, poor fit] | –
59 | O=C(CSc1nnc(C2CC2)n1Cc1ccccc1)c1ccc(S(=O)(=O)N2CCOCC2)cc1 | 23.1 µM [rising, single point] | –
60 | O=C(Nc1nc(N2C(=O)c3ccccc3C2=O)n(-c2ccccc2)n1)c1ccccc1 | 5.17 µM [falling, partial curve] | –
61 | Cc1ccc(C(=O)NCC(=O)OC(C)C(=O)Nc2ccc(N3CCOCC3)cc2)s1 (stereo unspecified) | 15.8 µM [rising, single point] | –
62 | COc1ccccc1NC(=O)CNC(=O)c1ccc(F)cc1 | 17.8 µM [falling, single point] | –
63 | CC(C)C[C@@H](CO)N(Cc1ccccc1)S(=O)(=O)N(Cc1ccccc1)[C@@H](CO)CC(C)C | 16.4 µM [falling, partial curve] | –

Pulled by compound from the entries so far, three records:
Row | Structure (SMILES) | AC50 [1] | AC50 [2]
43 | CC(C)c1ccc(O)c(N)c1 | 23.1 µM [falling, partial curve, poor fit] | –
45 | CC[C@H](C)[C@@H](NC(=O)O[C@@H]1C(=O)c2cc(Br)ccc2O[C@H]1c1ccc2c(c1)OCO2)C(=O)OC | 23.1 µM [rising, partial curve, poor fit] | –
56 | CCCc1[nH]n(-c2nc3ccccc3s2)c(=O)c1C=NCC1CCCO1 (stereo unspecified) | 8.91 µM [falling, partial curve, poor fit] | –
